{"sequences": {"note": "Chains of the proteins cited; added tags and fusions are not shown. Residues count along the entry.", "UniProt Q9P2K8, 192-1024": "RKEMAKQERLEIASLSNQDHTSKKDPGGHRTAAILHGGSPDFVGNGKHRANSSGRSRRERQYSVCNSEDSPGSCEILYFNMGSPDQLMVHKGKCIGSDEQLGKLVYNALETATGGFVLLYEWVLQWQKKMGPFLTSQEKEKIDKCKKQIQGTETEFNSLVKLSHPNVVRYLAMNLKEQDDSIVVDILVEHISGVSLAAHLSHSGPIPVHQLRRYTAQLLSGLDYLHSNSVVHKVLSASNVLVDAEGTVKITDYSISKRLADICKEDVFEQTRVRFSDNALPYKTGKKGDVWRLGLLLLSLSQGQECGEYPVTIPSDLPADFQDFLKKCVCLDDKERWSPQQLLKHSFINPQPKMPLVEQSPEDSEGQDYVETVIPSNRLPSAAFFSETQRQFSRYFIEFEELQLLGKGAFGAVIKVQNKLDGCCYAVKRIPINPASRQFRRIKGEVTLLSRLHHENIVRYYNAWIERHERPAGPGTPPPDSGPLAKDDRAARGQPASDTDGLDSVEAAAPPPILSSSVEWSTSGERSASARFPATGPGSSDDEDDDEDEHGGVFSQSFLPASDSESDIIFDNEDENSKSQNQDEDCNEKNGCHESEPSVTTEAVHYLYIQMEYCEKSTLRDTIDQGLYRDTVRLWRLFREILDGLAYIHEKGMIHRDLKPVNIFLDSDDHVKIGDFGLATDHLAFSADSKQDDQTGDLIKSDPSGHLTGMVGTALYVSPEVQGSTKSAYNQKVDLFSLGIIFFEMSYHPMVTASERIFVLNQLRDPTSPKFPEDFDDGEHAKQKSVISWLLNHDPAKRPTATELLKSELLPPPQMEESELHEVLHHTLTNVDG"}, "source": "paper PMC8434491", "about": "“Targeting the Integrated Stress Response Kinase GCN2 to Modulate Retroviral Integration” (Molecules, 2021)", "target": "T1, IN–GCN2 interaction (UniProt P04585+Q9P2K8)", "T1 construct": "expressed as a truncated version (192-1024) in fusion after a glutathione S-transferase tag; Recombinant full-length IN was expressed in E. coli BL21 pLys; purchased SignalChem (GCN2); IN made in house in E. coli BL21 pLys E12-11G; host or cells: E. coli BL21 pLys (IN)", "assay": "IN–GCN2 interaction assay (AlphaLISA)", "assay_type": "binding, HIV-1 IN / human GCN2", "details": "pilot screen, single dose of 100 µM; read-out: inhibition of the IN–GCN2 interaction signal", "description": "We developed an in vitro plate-based assay to monitor the interaction between GCN2 and IN using the AlphaLISA technology (Figure 1). Taking advantage of the tags present on each recombinant protein (6xHis for IN prepared “in-house”, and GST for GCN2 commercially available), we used specific beads that fluoresce only when they are in close proximity (<200 nm). The signal obtained (light count) is directly proportional to the binding of IN to GCN2 (homogenous solution assay at steady state). […] Accordingly, we decided to perform all further experiments at 25 nM and 700 nM for GCN2 and IN, respectively that correspond to the experimental conditions used in the in vitro phosphorylation assay.\nIN–GCN2 interaction assay. Protein–protein interactions were monitored using the AlphaLISA technology (Perkin Elmer) taking advantage of the GST and 6xHis tags of GCN2 and IN, respectively. Accordingly, AlphaScreen GSH Donor beads and AlphaLISA Nickel Acceptor beads were used (Perkin Elmer). Reactions were carried out at room temperature by incubating GCN2 with drugs or DMSO for 5 min before addition of AlphaLISA Nickel Acceptor beads. […] Alpha signal was measured using an EnSight plate reader (Perkin Elmer) 120 min after the addition of the latest component of the reaction (unless indicated otherwise).", "note": "Where a name gives a salt, the structure may show the parent alone.", "data": [{"smiles": "CC/C(=C(\\c1ccccc1)c1ccc(OCCN(C)C)cc1)c1ccccc1", "note": "[NSC180973, Tamoxifen citrate]", "values": [{"measurement": "inhibition at 100 µM", "value": 89.8, "unit": "%"}]}]}
